Laboratory results: PubChem BioAssay AID602196 (INSERM, 2012)
This is one part, drawn at random, of about 23,000 deposited reagents. 455 of them (2%) were called active. 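Active includes both protection and sensitisation; some change values fall well beyond the stated -50 to +50 range.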 Not stated in the record: the amount of reagent.

- Assay: 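Knock-downs that protect lung cancer cells from cisplatin or sensitise them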
- Cell system: human A549 lung cancer cells
- Reagent: siRNA pair against human genes
- Duration: 48 h transfection before cisplatin; time from cisplatin to read-out not stated
- Treatment: cisplatin at a dose killing half of control-siRNA cells; exact dose and duration not given
- Measurement: 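Shift in cisplatin death relative to control siRNA, from -50 (all cells die) to +50 (no cells die); siRNAs harmful on their own scored 0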
- Direction: two-siRNA summed score (-2 to +2): higher = both siRNAs protect from cisplatin killing; -2 means both sensitise; mean protection from cisplatin (shift in death) and protection from cisplatin (shift in death), siRNA C and protection from cisplatin (shift in death), siRNA D: higher = protection from cisplatin killing
- Active means: 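siRNAs harmful alone (LDH or WST-1) get 0; others get +1 for less and -1 for more cisplatin killing; genes are active when the two siRNAs give the same sign, summing to ±2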
- Meaning of the calls: active = both siRNAs shift cisplatin killing the same way; inactive = no consistent shift, or siRNA harmful alone

gene,two-siRNA summed score (-2 to +2),mean protection from cisplatin (shift in death) (%),"protection from cisplatin (shift in death), siRNA C (%)","protection from cisplatin (shift in death), siRNA D (%)",activity call
KCNK1,0,-5.3,-13.9,3.3,inactive
DKFZp434E1410,1,17.2,8.8,25.5,inactive
LOC339942,1,6,-2.5,14.5,inactive
DNAJC5,0,-1.4,6.1,-8.9,inactive
ADSL,1,3.6,12.3,-5.1,inactive
NDUFA9,0,9.3,17,1.6,inactive
LOC387939 (retired record),0,-0.6,7.1,-8.4,inactive
KCNK18,0,3.5,7.7,-0.7,inactive
TGM3,0,7.5,-8.7,23.8,inactive
RUNX2,0,4.5,-6.1,15.1,inactive
SIRT5,0,-5.8,-7.5,-4.1,inactive
LOC440174,1,6.3,-5.4,18.1,inactive
LOC285045,1,10.6,21.9,-0.7,inactive
VSTM4,0,0.3,8.1,-7.4,inactive
ARG2,0,9.9,10.1,9.7,inactive
LOC441353,0,-0.2,8.4,-8.7,inactive
LOC442591,0,21.6,25.6,17.7,inactive
MTERF1,1,1.7,-11.1,14.6,inactive
EML1,0,5.8,5.4,6.1,inactive
LOC340393,0,-7.6,-8,-7.2,inactive
LOC389301,0,-3.8,2.6,-10.1,inactive
PDZD4,0,3.6,11.8,-4.5,inactive
GRHL3,0,4.9,-2.9,12.7,inactive
STON2,1,11.4,4.2,18.6,inactive
PPFIA3,0,14.7,15.8,13.6,inactive
SAR1A,0,8.1,1.9,14.4,inactive
LOC391039,-1,1.8,-12.9,16.4,inactive
RAD23BP1,0,4.8,2.3,7.4,inactive
LOC284106,1,8.8,15.3,2.4,inactive
CACNG6,0,0.8,-3.6,5.1,inactive
ZNF180,0,10.2,17,3.4,inactive
TFEC,-2,-27.8,-35.7,-19.9,active
CCDC47,-1,-5.9,2.2,-14,inactive
BRD3,0,7.4,14.9,0,inactive

Next part, starting with the last 3 of the part before.
gene,two-siRNA summed score (-2 to +2),mean protection from cisplatin (shift in death) (%),"protection from cisplatin (shift in death), siRNA C (%)","protection from cisplatin (shift in death), siRNA D (%)",activity call
TFEC,-2,-27.8,-35.7,-19.9,active
CCDC47,-1,-5.9,2.2,-14,inactive
BRD3,0,7.4,14.9,0,inactive
PARK7,0,-6.3,-3.3,-9.2,inactive
LINC01913,0,3,9.1,-3,inactive
RFT1,0,-1,-4.2,2.2,inactive
FLJ39779,1,11.7,12.5,10.8,inactive
LRRC15,0,5.3,3.1,7.5,inactive
LOC388220,1,14.1,8.3,20,inactive
MAK16,0,2.3,-0.8,5.4,inactive
EPN3,0,-1.3,14.5,-17.1,inactive
QNG1,0,12.6,10.8,14.4,inactive
ABAT,0,12.1,0,24.1,inactive
LVRN,1,15.6,7.4,23.9,inactive
CALM2,0,3.8,5.9,1.7,inactive
ZXDC,-1,2.2,13.8,-9.5,inactive
IFITM1,0,0.5,-7.2,8.2,inactive
KPNB1,0,-26.2,-34.5,-17.8,inactive
DHFR,0,-12.5,-4,-20.9,inactive
PLXNC1,0,-18.9,-37.8,0,inactive
ZNF224,1,16,15.4,16.7,inactive
IVNS1ABP,0,7.1,6.7,7.4,inactive
IRAK1BP1,1,24.6,23.3,25.8,inactive
PTGR1,-1,-7.7,-3,-12.4,inactive
SAP18P2,0,8.6,-0.2,17.3,inactive
MATN4,0,2.5,1,4.1,inactive
